Our source for the binding signal values is paper PMC7819943, “Rice protein-binding microarrays: a tool to detect cis-acting elements near promoter regions in rice”.

Chains of the proteins cited; added tags and fusions are not shown.
UniProt Q0JBA9, entry or part of it: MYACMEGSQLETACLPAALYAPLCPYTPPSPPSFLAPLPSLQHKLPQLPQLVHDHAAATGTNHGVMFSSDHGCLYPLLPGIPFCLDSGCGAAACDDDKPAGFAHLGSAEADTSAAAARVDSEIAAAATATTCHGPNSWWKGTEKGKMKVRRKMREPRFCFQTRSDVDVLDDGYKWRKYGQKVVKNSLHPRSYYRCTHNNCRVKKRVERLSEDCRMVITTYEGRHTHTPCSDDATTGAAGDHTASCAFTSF

The list shows a part of the results.

For the assay, the target named is OsWRKY34 (Oryza sativa, UniProt Q0JBA9 1-250). Put plainly: protein-binding microarray (RPBM); PBS, 2% BSA, 51.3 ng/ul salmon testes DNA, 50 uM zinc acetate, 200 nM TF, 25 C, 1 h; high values mean tight binding. The conditions noted are these: protein: recombinant; tags: N-terminal polyhistidine and DsRed monomer fusion (pET32a); label: CyDye5-dUTP incorporated in the synthesized complementary strand; 3' TTTTT single-stranded linker to array surface; dsDNA, one strand shown. Summed up: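 Binding signal here means per-feature fluorescence intensity in arbitrary units. The values were read on an Axon 4000B scanner after a custom Agilent array, double-stranded by primer extension with Cy5-dUTP, was incubated with 200 nM protein at 25 °C for 1 h in PBS with 2% BSA, salmon testes DNA and 50 µM zinc acetate, then washed. The proteins were transcription factors with an N-terminal polyhistidine tag and DsRed, expressed in E. coli BL21-CodonPlus and purified on Ni–NTA.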
As to “CCGAACCCCACCCCACCCCACCCGCCGCGCCACGCCATCTCGGAGTCACCTAGTGCAG”, the binding signal was 9910 fluorescence intensity (a.u.).
Turning to “ATGGTATCAGCACACAGTTAAACTATCATGTCACTTGTACCGGAGTCACCTAGTGCAG”, the binding signal is 9030 fluorescence intensity (a.u.).
Next, “TTCCGGCAAATTCTTGCTTGCGTGAGGCCCGATCGAGCATCGGAGTCACCTAGTGCAG”: 8460 fluorescence intensity (a.u.); “CTTCCCGCCTTTGCCGTCCTCGCGCCGGCACGCGCGCGCGCGGAGTCACCTAGTGCAG”: 12700 fluorescence intensity (a.u.).
Next, “ATATATTCAGCTTCACCAACTAGGCCTTTTACTGAGTTCGCGGAGTCACCTAGTGCAG”: 8130 fluorescence intensity (a.u.).
Next, “ACGTTAATGGTTTTTTTTTATGGGAACAAAGGTTATGTTACGGAGTCACCTAGTGCAG”: 8940 fluorescence intensity (a.u.); “TGCCACGTTCACCACATAGATATCTTCCAAACTTGCTACACGGAGTCACCTAGTGCAG”: 8090 fluorescence intensity (a.u.).
In the case of “GTCAGTCGTCGCCTCATCGGGACAGCCTTTTTACCGTTTCCGGAGTCACCTAGTGCAG”, the binding signal is 9720 fluorescence intensity (a.u.).
Next, “CTTTTTTTTCATACACCCTTTTTACACTTTGCTTAGTATTCGGAGTCACCTAGTGCAG”: 10700 fluorescence intensity (a.u.); “TCTCTCTCCGTCTCTTGCGGTCTCGCCGTCGTCAGTCGCCCGGAGTCACCTAGTGCAG”: 8200 fluorescence intensity (a.u.).
“TTCTATATACCATAGTCGATCATCCCTGACTTTTTTTTTACGGAGTCACCTAGTGCAG”: the binding signal is 8540 fluorescence intensity (a.u.).
Next, “CGCCTGGGGTAGTGTTTTTTTCTCTCTTTTTGTTCGTTATCGGAGTCACCTAGTGCAG”: 9880 fluorescence intensity (a.u.).
Next, “GTGTCTTTGCTCCTTGAGTTCTGCACTAGCTAGCTAGTGTCGGAGTCACCTAGTGCAG”: 8350 fluorescence intensity (a.u.); “GTTACTGACAGTGGGACCAGCAGCTACCTCCCTTGTTTACCGGAGTCACCTAGTGCAG”: 9170 fluorescence intensity (a.u.); “CGCTCAATCAATCTGTACATGCTACCATGCTAGTTTCACCCGGAGTCACCTAGTGCAG”: 12300 fluorescence intensity (a.u.).
Next, “AAAAAACCAAAATTTTCCTTTTCTCTTTGTTTTTTTAATACGGAGTCACCTAGTGCAG”: 8720 fluorescence intensity (a.u.); “CAGAGCGCTAATGTTATTGTCCATCGGCCTCTTGTTGCAGCGGAGTCACCTAGTGCAG”: 8860 fluorescence intensity (a.u.).
On to “ACTTCAGTCACCCGAAATTTAGCGTATACTATTTTTTTTACGGAGTCACCTAGTGCAG”, for which the binding signal is 11800 fluorescence intensity (a.u.).
Next, “TCCACCCCGGCCTCCACATCCGCTCCACCCGCCGCCTCCCCGGAGTCACCTAGTGCAG”: 8570 fluorescence intensity (a.u.); “TGCCGGCGATTGGACTCTTCTACTCTCTCCCTTTCCTTTGCGGAGTCACCTAGTGCAG”: 10800 fluorescence intensity (a.u.).
Next, “CCCGTCAACGCCACCTCACCGTTGACGTTGCCACTCTCTTCGGAGTCACCTAGTGCAG”: 16800 fluorescence intensity (a.u.); “CACATTTTCATGGCTCATCACAACAGTTACAATTTCCCTTCGGAGTCACCTAGTGCAG”: 10800 fluorescence intensity (a.u.); “TCTACCGCATCTTCTGCTGCTTCATCCGTCCTCCTAAATCCGGAGTCACCTAGTGCAG”: 14400 fluorescence intensity (a.u.).
In the case of “TCTCTCTCTCTTTTCTCTCTAGCTATTCAATGCTCCTTTTCGGAGTCACCTAGTGCAG”, the binding signal is 8050 fluorescence intensity (a.u.).
Next, “AACTCCACAACCATCTCTATTCCTTCATTTTTCCTAATCCCGGAGTCACCTAGTGCAG”: 8810 fluorescence intensity (a.u.); “TCGCCGAGGGTGGGCTTCAAGGTGGACGCGGAGAAAGCGACGGAGTCACCTAGTGCAG”: 8490 fluorescence intensity (a.u.).
Next, “GCCCCTCTCGCCGGCCGCCGACCCGCCCCTGCTGCTCACCCGGAGTCACCTAGTGCAG”: 8900 fluorescence intensity (a.u.); “AAAACATTCGCAATATGGCCTCTTGCATTCAATTTAGATTCGGAGTCACCTAGTGCAG”: 8390 fluorescence intensity (a.u.).
Next, “TACTTTTAGTAGATGGGTTGGTGATTATTTTTTCAATGTACGGAGTCACCTAGTGCAG”: 10700 fluorescence intensity (a.u.); “TCGCGGGGATGTTCGGCTGTTTCGGTTTCGGCCTGCGTAACGGAGTCACCTAGTGCAG”: 8880 fluorescence intensity (a.u.); “TTACTCTGCAAGGTACTCTCATCTTGGATCACTTGATTTTCGGAGTCACCTAGTGCAG”: 8170 fluorescence intensity (a.u.).
With “TCGTGAACGCCATCACCCATCAGTTTCCTCGTCCTTGCCTCGGAGTCACCTAGTGCAG”, the binding signal is 10100 fluorescence intensity (a.u.).
Next, “CTTTCCGTTATCTCTCTCCTCTATTGCAGCCGCCGCCGCTCGGAGTCACCTAGTGCAG”: 9610 fluorescence intensity (a.u.); “TCGAATATCTCTCTTACTCACTACTCGGCATCATAGTTCACGGAGTCACCTAGTGCAG”: 8640 fluorescence intensity (a.u.).
Next, “CCTCTTCATTTTTCCTCGACGGCCCAGCTCCCTCGACCAACGGAGTCACCTAGTGCAG”: 9920 fluorescence intensity (a.u.); “CTGCTCATATTTGCTCTAGTGTAACTACTTATGCTCCAAACGGAGTCACCTAGTGCAG”: 8720 fluorescence intensity (a.u.).
Next, “TAATGTATGACGCCGTTGACTTTTTGATTAACGTTTGACCCGGAGTCACCTAGTGCAG”: 34800 fluorescence intensity (a.u.); “CATCCTCCTTTTAGCTTTGCTTAATTGTGCCGCTATAGATCGGAGTCACCTAGTGCAG”: 8480 fluorescence intensity (a.u.).
“ACGGGGACAGGGAGAGGAGCGGGGATTTTGTGGCGGGAGACGGAGTCACCTAGTGCAG”: the binding signal is 9460 fluorescence intensity (a.u.).
Next, “ACCACAATGTACTTTTTCTCCCACGCATACAGTTCCCAAACGGAGTCACCTAGTGCAG”: 8250 fluorescence intensity (a.u.); “TATCTTTTTATTTTTTTTTCGGGATCAAATTATCATATAACGGAGTCACCTAGTGCAG”: 8090 fluorescence intensity (a.u.).
For the sequence “CAGAACCAGGTTTTGCCTTGTTGCACATCCTTCTAGCTTCCGGAGTCACCTAGTGCAG”, the binding signal is 8270 fluorescence intensity (a.u.).
